According to the supplement of paper PMC3334620:
Over roughly 33,000 sequences, “E-score (-0.5 to 0.5)” has its median near -0.0014; the highest 2% begin near 0.25. The list shows a part of the results.

biological target: T1, Cad1 (UniProt P24813); assay: PBM E-score (8-mer binding enrichment) (E-score (-0.5 to 0.5)); higher = stronger / more preferred TF binding; settings: protein concentration: 100 nM; construct: GST-full length
T1 sequence: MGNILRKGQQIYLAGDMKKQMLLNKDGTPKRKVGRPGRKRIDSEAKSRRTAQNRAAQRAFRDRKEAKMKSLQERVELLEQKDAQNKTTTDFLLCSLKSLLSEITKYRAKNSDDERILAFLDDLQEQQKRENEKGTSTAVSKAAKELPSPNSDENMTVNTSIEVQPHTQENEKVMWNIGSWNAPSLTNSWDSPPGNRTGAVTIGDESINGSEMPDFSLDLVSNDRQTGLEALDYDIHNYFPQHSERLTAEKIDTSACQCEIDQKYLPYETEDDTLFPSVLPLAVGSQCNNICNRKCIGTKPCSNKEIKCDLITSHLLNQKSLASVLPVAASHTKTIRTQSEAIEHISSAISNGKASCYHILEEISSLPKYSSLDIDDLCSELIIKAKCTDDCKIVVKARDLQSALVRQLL
Summary of the method: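 For each ungapped eight-base word taken together with its reverse complement, the Universal PBM Analysis Suite assigned an E-score. Binding data came from GST-tagged yeast transcription factors, applied at about 100-200 nM, on universal all-10-mer Agilent arrays made double-stranded by primer extension. Fluorescent anti-GST marked bound protein, and scans were normalised with masliner.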

Sequence | PBM E-score
CACAAGTG | -0.154
AATCTGCA | 0.0201
CACGCGAA | 0.0527
AGAGGTAT | 0.0452
ATCCTTTA | 0.0155
ATTTATGA | 0.193
ATGATCGG | -0.0294
ACGGTTAA | -0.0408
GTGTATGA | -0.0775
TCCACCCA | -0.204
GAGAGTCA | -0.12
ACGGGATC | -0.0506
TGTGAGAA | 0.134
CGGCCCCC | -0.304
CTTTAGGA | -0.188
TGTTGAAA | 0.135
CTAACCCA | -0.0318
TAAGTCTA | -0.204
GCACTGAA | -0.00339
ATGTAGTA | 0.186
ATCAGCTC | 0.0714
ACCATCAT | -0.128
GTTAAATA | -0.0784
GGGATTTA | 0.0767
ATGAGCTA | 0.039

Sequence | PBM E-score
AAGCTGTG | 0.0994
AGTATGTG | 0.0343
GCCGCTAC | 0.0123
CACGTAAC | -0.0431
CAGCACGA | 0.0762
GAACGGCA | 0.122
CCCAGAAC | -0.0556
AGCGCGAC | 0.106
ATTTCTAA | 0.16
ATTGGGTC | -0.0003
CTAGCTAA | -0.0595
ACCGCTCG | -0.14
GTTGAGTA | 0.027
CCATAACA | 0.106
AGTCTTAA | -0.19
CATCAAGC | 0.0307
AGTCCAGC | -0.112
ATTCGGCA | -0.0535
AATCCTAC | -0.115
ATGAAACC | 0.159
CGAGGTTC | 0.0555
AGGTTACC | 0.193
CGATTCCA | -0.0248
AACATTCC | 0.0116
AACCTTTG | -0.0691

Looked up above.
GAACGGCA – PBM E-score: 0.122
CCCAGAAC – PBM E-score: -0.0556
AGCGCGAC – PBM E-score: 0.106

Next records follow:

Sequence | PBM E-score
GGCCGCCC | -0.16
AAGCGTCA | 0.156
GGTTAACC | -0.0963
CGGAGTTC | 0.0231
AATTGTGA | 0.104
AGTCCCAA | -0.0249
ATATGAAC | 0.12
CCAGTGAC | -0.0698
ACCGGCAT | 0.0745
CAGATTGG | -0.207
GTCACGGA | 0.0544
AGAGAGCG | -0.166
CACCAAGC | -0.113
ATGGGGGC | -0.349
CAGTCCCC | -0.294
GGTCTGTA | 0.0314
AAGATACA | 0.187
AAGAAGTA | 0.12
ATATGGGG | -0.0624
GTACGGCA | -0.0302
GCGGACCC | -0.221
CAACGGAA | 0.22
CACAAATG | -0.0179
ACTAGACG | -0.0634
CTCGCACC | -0.0697

Random excerpt: 2 records from the list
Sequence | PBM E-score
GGTCTGTA | 0.0314
GCGGACCC | -0.221

Next part

Sequence | PBM E-score
AACCAGGC | -0.107
TCGTGAGA | -0.0047
TCAAGTCA | 0.053
AAAGGCGC | 0.0944
GTCCGGCA | 0.0478
ATTAAAAA | 0.221
AGGCAACC | 0.056
GTCTGAAC | 0.0267
AAGAATTC | 0.0649
ACGTTTTC | 0.00043
AAGGCGAA | -0.153
CGTACCTC | -0.187
ATTCGGCG | 0.096
AGGCGTAT | 0.102
AAATGAGC | 0.0153
ATATCCAC | 0.0501
ACATGGGG | -0.185
CCCGGCGG | -0.198
CGTCGTCC | -0.0843
GCTAACAC | 0.0749
CAACGCAA | 0.0609
GGCGAACA | -0.0067
AGCCTCCT | -0.12
ACCCTAGG | -0.0422
AATGGCTA | 0.0612

Sequence | PBM E-score
CCCATAAG | -0.112
AGGCGAGC | -0.0654
CACCGACG | -0.0612
GTTAGCAA | 0.0595
GGGTATGA | 0.113
CCAAAAGA | 0.0811
CCAACCGG | -0.0891
AGTTCCTC | -0.0528
TGGACCAA | 0.0182
ATAGACAC | -0.0255
CACCATCC | -0.223
AGATTGCT | -0.137
CATCACAC | 0.14
AGATACAC | 0.176
ACCGGGCT | -0.199
GATTCGAA | 0.241
GCCGATCA | 0.0125
ACTAATTA | 0.377
CATGCAGG | -0.124
CTTCGCCC | -0.322
AGTGATGC | -0.0338
GTTGAATA | 0.0812
AAATCAGC | 0.239
GAACAATC | 0.0607
ATGCACTC | -0.114

Sequence | PBM E-score
ACAGATAG | 0.0169
CCCCGCCC | 0.114
AACTTCTC | 0.0154
CCGATTTC | 0.0377
ATACCAAA | 0.0574
AACAGTAT | 0.0636
ACTTATGG | -0.186
CCATTGAG | 0.00757
GCTGGGTA | -0.235
CTTGAGAA | -0.0624
GGAGTTTA | 0.0863
AACGTTCC | -0.0424
ATTTCGTA | 0.138
AAAGTTAA | 0.18
GTTGCCTA | -0.0749
CTGCCGCC | -0.179
CAAGTTGA | 0.0129
GACCATCA | 0.06
ATTGTGTC | 0.0338
CAATTCTC | 0.0551
GATCTCGC | 0.0917
AAGTAAGT | -0.0379
AACGGCAG | -0.164
ACTTATAC | 0.154
GAGCGCTC | 0.115

Sequence | PBM E-score
ATACCGCG | 0.242
ATTTATTG | 0.0113
ATAGAAAG | -0.159
GTTGGACA | 0.029
AGTCGGAC | 0.0345
TACTATGA | 0.127
ACCCTCGT | -0.178
GGCTAGTA | -0.0115
AGTTAGGA | 0.0543
ACTTCCCG | -0.00046
ACGTATAC | 0.0645
CTTTCCAC | -0.0452
AATTGCGC | 0.232
CATGGTAA | 0.0672
AGTTAGTC | -0.0819
ACGCAAGT | -0.0803
AGGAATGA | -0.106
GTGCGACA | -0.125
CACTTCCG | -0.0726
CGTGGGCA | -0.0799
CGTATCGA | -0.0409
CGTGAGAA | -0.0161
